Values of other authors as cited in publication PMC12019622 (World Journal of Experimental Medicine, 2025).

Tested on: blood-brain barrier (BBB)
Conditions: cited from earlier work

COc1cc2c(cc1OC)C(=O)C(CC1CCN(Cc3ccccc3)CC1)C2 (stereo not shown) [donepezil]
permeability across the blood-brain barrier (BBB): 12 ×10⁻⁶ cm/s
